Source: the supplement of paper PMC10331698
± gives the standard deviation of the averaged measurements. Small differences around the control level are noise.

How the values were obtained:
Assay in all cases: level (log10 ratio to DMSO vehicle control); higher = higher biomarker level / cell amount than vehicle control
[1] = compound: C=CC(=O)OCC(F)(F)C(F)(F)C(F)(F)COC(=O)C=C [1H,1H,5H,5H-Perfluoro-1,5-pentanediol diacrylate]; settings: 2200 nM; in DMSO
Description: (§1)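 BioMAP Diversity Plus panel of 12 human primary cell co-culture systems (3C, 4H, LPS, SAg, BT, BF4T, BE3C, CASM3C, HDF3CGF, KF3CT, MyoF, Mphg). Compounds were added 1 h before stimulation and left for 24 h (MyoF 48 h; BT 72 h for soluble read-outs or 6 d for IgG). Biomarkers were read by ELISA, cytotoxicity by SRB, PBMC viability and proliferation by Alamar Blue. Each well value was divided by the mean of 8 DMSO control wells on the same plate and log10 transformed; duplicate blinded samples were tested at 4 concentrations.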

[2] = compound: C=CC(=O)OCCC(F)(F)C(F)(F)C(F)(F)C(F)(F)C(F)(F)C(F)(F)C(F)(F)C(F)(F)F [8:2 Fluorotelomer acrylate]; settings: 2200 nM; in DMSO
Description: as §1

[3] = compound: C=CC(=O)OCCC(F)(F)C(F)(F)C(F)(F)C(F)(F)F [2-(Perfluorobutyl)ethyl acrylate]; settings: 2200 nM; in DMSO
Description: as §1

[4] = compound: FC(F)(F)C(F)(C(F)(F)F)C(F)(F)C(F)(F)CC1CO1 [3-(Perfluoro-3-methylbutyl)-1,2-propenoxide]; settings: in DMSO
Description: as §1

[5] = compound: FC(F)(F)C(F)(F)C(F)(F)C(F)(F)C(F)(F)C(F)(F)I [Perfluoro-1-iodohexane]; settings: in DMSO
Description: as §1

[6] = compound: FC(F)(I)C(F)(F)C(F)(F)C(F)(F)C(F)(F)C(F)(F)I [1,6-Diiodoperfluorohexane]; settings: 2200 nM; in DMSO
Description: as §1

[7] = compound: O=C(Cl)C(F)(F)C(F)(F)C(F)(F)C(=O)Cl [Hexafluoroglutaryl chloride]; settings: 2200 nM; in DMSO
Description: as §1

[8] = compound: O=C(O)C(F)(F)C(F)(F)C(F)(F)C(F)(F)C(F)(F)C(F)(F)C(F)(F)C(F)(F)C(F)(F)C(F)(F)C(F)(F)C(F)(F)C(F)(F)F [Perfluorotetradecanoic acid]; settings: in DMSO
Description: as §1

[9] = compound: O=C(O)C=C(C(F)(F)F)C(F)(F)F [3,3-Bis(trifluoromethyl)-2-propenoic acid]; settings: in DMSO
Description: as §1

[10] = compound: O=S(=O)(O)C(F)(F)C(F)(F)C(F)(F)C(F)(F)C(F)(F)C(F)(F)F [Perfluorohexanesulfonic acid]; settings: 2200 nM; in DMSO
Description: as §1

[11] = compound: O=S(=O)(O)CCC(F)(F)C(F)(F)C(F)(F)C(F)(F)F [4:2 Fluorotelomer sulfonic acid]; settings: 2200 nM; in DMSO
Description: as §1

[12] = compound: OCC(F)(F)C(F)(F)C(F)(F)CO [Hexafluoroamylene glycol]; settings: 2200 nM; in DMSO
Description: as §1

[13] = compound: OCCCC(F)(F)C(F)(F)C(F)(F)C(F)(F)C(F)(F)C(F)(F)C(F)(F)F [7:3 Fluorotelomer alcohol]; settings: 2200 nM; in DMSO
Description: as §1

| Test System | level (log10) [1] | level (log10) [2] | level (log10) [3] | level (log10) ([4]; 740 nM) | level (log10) ([4]; 2200 nM) | level (log10) ([5]; 2200 nM) | level (log10) ([5]; 6700 nM) | level (log10) ([5]; 20000 nM) | level (log10) ([5]; 60000 nM) | level (log10) [6] | level (log10) [7] | level (log10) ([8]; 740 nM) | level (log10) ([8]; 2200 nM) | level (log10) ([9]; 2200 nM) | level (log10) ([9]; 6700 nM) | level (log10) ([9]; 20000 nM) | level (log10) ([9]; 60000 nM) | level (log10) [10] | level (log10) [11] | level (log10) [12] | level (log10) [13] |
| --- | --- | --- | --- | --- | --- | --- | --- | --- | --- | --- | --- | --- | --- | --- | --- | --- | --- | --- | --- | --- | --- |
| 4H:CD62P/P-selectin | 0.0175 ± 0.036 | -0.039 ± 0.0028 | -0.0105 ± 0.018 | -0.0235 ± 0.059 | 0.011 ± 0.041 | 0.0445 ± 0.086 | 0.034 ± 0.028 | -0.012 ± 0.11 | 0.0625 ± 0.14 | -0.029 ± 0.024 | -0.019 ± 0.0085 | -0.003 ± 0.018 | -0.005 ± 0.014 | 0.0165 ± 0.012 | 0.005 ± 0.0042 | -0.0505 ± 0.022 | -0.164 ± 0.028 | 0.0155 ± 0.022 | -0.012 ± 0.02 | -0.049 ± 0.062 | 0.0525 ± 0.049 |
| MyoF:TIMP-1 | 0.022 ± 0.028 | -0.018 ± 0.033 | -0.035 ± 0.025 | -0.0065 ± 0.043 | -0.014 ± 0.013 | 0.0185 ± 0.00071 | 0.036 ± 0.0085 | 0.0395 ± 0.011 | -0.058 ± 0.0014 | 0.042 ± 0.0071 | -0.0585 ± 0.03 | 0.01 ± 0.035 | 0.001 ± 0.071 | -0.015 ± 0.0057 | -0.0545 ± 0.025 | -0.023 ± 0.023 | -0.0085 ± 0.077 | -0.021 ± 0.033 | -0.056 ± 0.062 | -0.0555 ± 0.042 | 0.008 ± 0.0014 |
| BE3C:CXCL9/MIG | -0.01 ± 0.016 | 0.0025 ± 0.0092 | -0.006 ± 0.013 | -0.0055 ± 0.0064 | 0 ± 0.014 | -0.001 ± 0.0057 | 0.0085 ± 0.0035 | -0.002 ± 0.0071 | -0.0035 ± 0.018 | -0.0035 ± 0.012 | 0.0135 ± 0.011 | -0.0005 ± 0.0092 | 0.001 ± 0.0071 | 0.0035 ± 0.012 | -0.007 ± 0.014 | -0.007 ± 0.0057 | 0.005 ± 0.023 | 0.0085 ± 0.015 | -0.0025 ± 0.00071 | -0.0055 ± 0.00071 | 0.0005 ± 0.0021 |
| BE3C:CXCL8/IL-8 | 0.0165 ± 0.012 | 0.008 ± 0.079 | 0.0355 ± 0.047 | 0.041 ± 0.095 | 0.0135 ± 0.0064 | 0.01 ± 0.025 | 0.011 ± 0.033 | 0.021 ± 0.028 | 0.052 ± 0.033 | 0.021 ± 0.065 | 0.047 ± 0.018 | 0.015 ± 0.025 | 0.0225 ± 0.016 | 0.0295 ± 0.052 | -0.016 ± 0.0042 | -0.026 ± 0.0085 | -0.0075 ± 0.04 | 0.0205 ± 0.019 | 0.0115 ± 0.04 | -0.0015 ± 0.011 | 0.013 ± 0.069 |
| 4H:SRB | 0.012 ± 0.013 | -0.0055 ± 0.0078 | 0.0135 ± 0.029 | 0.016 ± 0.018 | 0.0105 ± 0.028 | 0.0015 ± 0.016 | -0.0065 ± 0.011 | -0.008 ± 0.0042 | -0.0105 ± 0.0035 | 0.012 ± 0.011 | 0.0025 ± 0.0078 | -0.003 ± 0.017 | -0.0325 ± 0.00071 | 0.0035 ± 0.0092 | -0.008 ± 0.0042 | -0.026 ± 0.027 | -0.0615 ± 0.015 | -0.012 ± 0.014 | -0.0005 ± 0.0064 | -0.009 ± 0.018 | -0.001 ± 0.021 |
| HDF3CGF:Collagen I | -0.0755 ± 0.043 | -0.016 ± 0.061 | -0.009 ± 0.098 | 0.0005 ± 0.061 | -0.0085 ± 0.12 | 0.0095 ± 0.042 | -0.0285 ± 0.026 | -0.0365 ± 0.0092 | -0.045 ± 0.0071 | -0.012 ± 0.052 | 0.0085 ± 0.06 | 0.026 ± 0.0085 | -0.001 ± 0.034 | -0.03 ± 0.038 | -0.031 ± 0.0028 | -0.041 ± 0.02 | -0.03 ± 0.038 | 0.0205 ± 0.021 | 0.0375 ± 0.14 | 0.0305 ± 0.015 | 0.0255 ± 0.011 |
